This continues a long series; more values of the same kind are listed elsewhere.
Legend:
Assay type in all cases: functional
Candida parapsilosis [1] = assay: Increase in CGD gene ortholog accession number orf19.2439 expression in Candida parapsilosis CLIB214 at 50 uM after 2 hrs by microarray based transcriptional profiling relative to control
Candida parapsilosis [2] = assay: Decrease in CGD gene ortholog accession number orf19.1158 expression in Candida parapsilosis CLIB214 at 50 uM after 2 hrs by microarray based transcriptional profiling relative to control
Candida parapsilosis [3] = assay: Decrease in PDC2 gene expression in Candida parapsilosis CLIB214 at 50 uM after 2 hrs by microarray based transcriptional profiling relative to control
Candida parapsilosis [4] = assay: Decrease in CGD gene ortholog accession number orf19.2737 expression in Candida parapsilosis CLIB214 at 50 uM after 2 hrs by microarray based transcriptional profiling relative to control
Candida parapsilosis [5] = assay: Increase in CGD gene ortholog accession number orf19.4739 expression in Candida parapsilosis CLIB214 at 50 uM after 2 hrs by microarray based transcriptional profiling relative to control
Candida parapsilosis [6] = assay: Increase in CGD gene ortholog accession number orf19.5015 expression in Candida parapsilosis CLIB214 at 50 uM after 2 hrs by microarray based transcriptional profiling relative to control
Candida parapsilosis [7] = assay: Decrease in SDS22 gene expression in Candida parapsilosis CLIB214 at 50 uM after 2 hrs by microarray based transcriptional profiling relative to control
Candida parapsilosis [8] = assay: Decrease in CGD gene ortholog accession number orf19.278 expression in Candida parapsilosis CLIB214 at 50 uM after 2 hrs by microarray based transcriptional profiling relative to control
Candida parapsilosis [9] = assay: Increase in DIP2 gene expression in Candida parapsilosis CLIB214 at 50 uM after 2 hrs by microarray based transcriptional profiling relative to control
Candida parapsilosis [10] = assay: Increase in CGD gene ortholog accession number orf19.813 expression in Candida parapsilosis CLIB214 at 50 uM after 2 hrs by microarray based transcriptional profiling relative to control
Candida parapsilosis [11] = assay: Decrease in CGD gene ortholog accession number orf19.1500 expression in Candida parapsilosis CLIB214 at 50 uM after 2 hrs by microarray based transcriptional profiling relative to control
Candida parapsilosis [12] = assay: Decrease in CGD gene ortholog accession number orf19.6637 expression in Candida parapsilosis CLIB214 at 50 uM after 2 hrs by microarray based transcriptional profiling relative to control
Candida parapsilosis [13] = assay: Decrease in CGD gene ortholog accession number orf19.1307 expression in Candida parapsilosis CLIB214 at 50 uM after 2 hrs by microarray based transcriptional profiling relative to control
Candida parapsilosis [14] = assay: Increase in CGD gene ortholog accession number orf19.4544 expression in Candida parapsilosis CLIB214 at 50 uM after 2 hrs by microarray based transcriptional profiling relative to control
Candida parapsilosis [15] = assay: Increase in CGD gene ortholog accession number orf19.2367 expression in Candida parapsilosis CLIB214 at 50 uM after 2 hrs by microarray based transcriptional profiling relative to control
Candida parapsilosis [16] = assay: Increase in CGD gene ortholog accession number orf19.7196 expression in Candida parapsilosis CLIB214 at 50 uM after 2 hrs by microarray based transcriptional profiling relative to control
Candida parapsilosis [17] = assay: Decrease in CGD gene ortholog accession number orf19.6046 expression in Candida parapsilosis CLIB214 at 50 uM after 2 hrs by microarray based transcriptional profiling relative to control
Candida parapsilosis [18] = assay: Decrease in CGD gene ortholog accession number orf19.894 expression in Candida parapsilosis CLIB214 at 50 uM after 2 hrs by microarray based transcriptional profiling relative to control
Candida parapsilosis [19] = assay: Increase in CDC12 gene expression in Candida parapsilosis CLIB214 at 50 uM after 2 hrs by microarray based transcriptional profiling relative to control
Candida parapsilosis [20] = assay: Increase in GenBank accession number NP_943643.1 expression in Candida parapsilosis CLIB214 at 50 uM after 2 hrs by microarray based transcriptional profiling relative to control
Candida parapsilosis [21] = assay: Increase in STI1 gene expression in Candida parapsilosis CLIB214 at 50 uM after 2 hrs by microarray based transcriptional profiling relative to control
Candida parapsilosis [22] = assay: Increase in CGD gene ortholog accession number orf19.2465 expression in Candida parapsilosis CLIB214 at 50 uM after 2 hrs by microarray based transcriptional profiling relative to control
Candida parapsilosis [23] = assay: Increase in CGD gene ortholog accession number orf19.3481 expression in Candida parapsilosis CLIB214 at 50 uM after 2 hrs by microarray based transcriptional profiling relative to control
Candida parapsilosis [24] = assay: Decrease in CGD gene ortholog accession number orf19.1177 expression in Candida parapsilosis CLIB214 at 50 uM after 2 hrs by microarray based transcriptional profiling relative to control
Candida parapsilosis [25] = assay: Decrease in CGD gene ortholog accession number orf19.6984 expression in Candida parapsilosis CLIB214 at 50 uM after 2 hrs by microarray based transcriptional profiling relative to control
Candida parapsilosis [26] = assay: Increase in GenBank accession number NP_943640.1 expression in Candida parapsilosis CLIB214 at 50 uM after 2 hrs by microarray based transcriptional profiling relative to control
Candida parapsilosis [27] = assay: Decrease in ZCF12 gene expression in Candida parapsilosis CLIB214 at 50 uM after 2 hrs by microarray based transcriptional profiling relative to control
Candida parapsilosis [28] = assay: Decrease in CGD gene ortholog accession number orf19.5307 expression in Candida parapsilosis CLIB214 at 50 uM after 2 hrs by microarray based transcriptional profiling relative to control
Candida parapsilosis [29] = assay: Increase in CGD gene ortholog accession number orf19.6373 expression in Candida parapsilosis CLIB214 at 50 uM after 2 hrs by microarray based transcriptional profiling relative to control
Candida parapsilosis [30] = assay: Decrease in MNL1 gene expression in Candida parapsilosis CLIB214 at 50 uM after 2 hrs by microarray based transcriptional profiling relative to control
Candida parapsilosis [31] = assay: Decrease in CGD gene ortholog accession number orf19.1881 expression in Candida parapsilosis CLIB214 at 50 uM after 2 hrs by microarray based transcriptional profiling relative to control
Candida parapsilosis [32] = assay: Increase in TIF4631 gene expression in Candida parapsilosis CLIB214 at 50 uM after 2 hrs by microarray based transcriptional profiling relative to control
Candida parapsilosis [33] = assay: Increase in ARD gene expression in Candida parapsilosis CLIB214 at 50 uM after 2 hrs by microarray based transcriptional profiling relative to control
Candida parapsilosis [34] = assay: Increase in CGD gene ortholog accession number orf19.5416 expression in Candida parapsilosis CLIB214 at 50 uM after 2 hrs by microarray based transcriptional profiling relative to control
Candida parapsilosis [35] = assay: Decrease in CGD gene ortholog accession number orf19.2136 expression in Candida parapsilosis CLIB214 at 50 uM after 2 hrs by microarray based transcriptional profiling relative to control
Candida parapsilosis [36] = assay: Increase in CGD gene ortholog accession number orf19.171 expression in Candida parapsilosis CLIB214 at 50 uM after 2 hrs by microarray based transcriptional profiling relative to control

In the case of CC(C)=CCC/C(C)=C/CC/C(C)=C/CO [FARNESOL], the “fold change (FC)” value (Candida parapsilosis [1]) is reported as 1.76, the “fold change (FC)” value (Candida parapsilosis [2]) is reported as 1.65 and the “fold change (FC)” value (Candida parapsilosis [3]) is reported as 1.8. For the same molecule, the “fold change (FC)” value (Candida parapsilosis [4]) was 1.55, the “fold change (FC)” value (Candida parapsilosis [5]) was 1.73 and the “fold change (FC)” value (Candida parapsilosis [6]) was 2.2. For the same molecule, the “fold change (FC)” value (Candida parapsilosis [7]) was 1.69, the “fold change (FC)” value (Candida parapsilosis [8]) was 1.86 and the “fold change (FC)” value (Candida parapsilosis [9]) was 1.63. For the same molecule, the “fold change (FC)” value (Candida parapsilosis [10]) was 1.59, the “fold change (FC)” value (Candida parapsilosis [11]) was 1.67 and the “fold change (FC)” value (Candida parapsilosis [12]) was 1.77. The “fold change (FC)” value (Candida parapsilosis [13]) was 1.87, the “fold change (FC)” value (Candida parapsilosis [14]) was 1.51 and the “fold change (FC)” value (Candida parapsilosis [15]) was 1.63. The “fold change (FC)” value (Candida parapsilosis [16]) was 1.7, the “fold change (FC)” value (Candida parapsilosis [17]) was 1.53 and the “fold change (FC)” value (Candida parapsilosis [18]) was 1.69. The “fold change (FC)” value (Candida parapsilosis [19]) was 1.76, the “fold change (FC)” value (Candida parapsilosis [20]) was 1.81 and the “fold change (FC)” value (Candida parapsilosis [21]) was 2.71. The “fold change (FC)” value (Candida parapsilosis [22]) was 1.56, the “fold change (FC)” value (Candida parapsilosis [23]) was 1.67 and the “fold change (FC)” value (Candida parapsilosis [24]) was 1.97. For the same molecule, the “fold change (FC)” value (Candida parapsilosis [25]) was 1.75, the “fold change (FC)” value (Candida parapsilosis [26]) was 2.17 and the “fold change (FC)” value (Candida parapsilosis [27]) was 1.7. For the same molecule, the “fold change (FC)” value (Candida parapsilosis [28]) was 2.24, the “fold change (FC)” value (Candida parapsilosis [29]) was 1.79 and the “fold change (FC)” value (Candida parapsilosis [30]) was 1.88. The “fold change (FC)” value (Candida parapsilosis [31]) was 1.57, the “fold change (FC)” value (Candida parapsilosis [32]) was 1.9 and the “fold change (FC)” value (Candida parapsilosis [33]) was 1.82. For the same molecule, the “fold change (FC)” value (Candida parapsilosis [34]) was 1.54, the “fold change (FC)” value (Candida parapsilosis [35]) was 2 and the “fold change (FC)” value (Candida parapsilosis [36]) was 3.8.

— ChEMBL document CHEMBL1157379, “Transcriptional response of Candida parapsilosis following exposure to farnesol” (2007)
